Measured values taken from publication PMC8592984.
Results are given in words; binding and its absence hold for the method and conditions named. In cells and extracts the contact can be indirect. Binding calls can cover weak binding; strength is not graded here.

Chains of the proteins cited; added tags and fusions are not shown.
UniProt Q91VJ5: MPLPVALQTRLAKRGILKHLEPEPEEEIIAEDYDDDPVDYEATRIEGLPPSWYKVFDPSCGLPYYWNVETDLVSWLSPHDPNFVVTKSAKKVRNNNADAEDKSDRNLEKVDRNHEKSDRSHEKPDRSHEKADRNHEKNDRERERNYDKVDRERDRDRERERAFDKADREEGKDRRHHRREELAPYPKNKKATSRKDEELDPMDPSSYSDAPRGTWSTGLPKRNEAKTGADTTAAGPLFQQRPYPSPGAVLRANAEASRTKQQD

Biological target: endogenous mouse PQBP1 (mouse (endogenous in primary microglia and in R6/2 cerebral cortex)) (UniProt Q91VJ5)
Assay: co-IP; RIPA lysate of cerebral cortex of R6/2 mice; precipitated with anti-PQBP1 or anti-tau antibody and Protein G Sepharose; SDS-PAGE

binding: binds
Substance: endogenous mouse tau (from UniProt P10637-2)
